In PubChem BioAssay AID1671190 (National Center for Advancing Translational Sciences (NCATS), 2021):
Among all 580,000 compounds or so, about 6,100 (1.1%) were called active. Inconclusive results, whose numbers are uncertain, are shown with a selection of clear calls. The call rests on the fitted dose curve; in most records, active means well fitted inhibition curve with a large enough effect; inconclusive means small, poorly fitted or top-dose-only effect, or another doubt; inactive means no such curve, though single readings can be large or run the other way. Potencies beside an inconclusive call are fits to weak or partial responses and may not hold up.

Sequences of proteins named here, by UniProt entry; tags and fusion partners are left off. A change or cut given only in a name is not applied to a line headed by its entry.
UniProt P18054: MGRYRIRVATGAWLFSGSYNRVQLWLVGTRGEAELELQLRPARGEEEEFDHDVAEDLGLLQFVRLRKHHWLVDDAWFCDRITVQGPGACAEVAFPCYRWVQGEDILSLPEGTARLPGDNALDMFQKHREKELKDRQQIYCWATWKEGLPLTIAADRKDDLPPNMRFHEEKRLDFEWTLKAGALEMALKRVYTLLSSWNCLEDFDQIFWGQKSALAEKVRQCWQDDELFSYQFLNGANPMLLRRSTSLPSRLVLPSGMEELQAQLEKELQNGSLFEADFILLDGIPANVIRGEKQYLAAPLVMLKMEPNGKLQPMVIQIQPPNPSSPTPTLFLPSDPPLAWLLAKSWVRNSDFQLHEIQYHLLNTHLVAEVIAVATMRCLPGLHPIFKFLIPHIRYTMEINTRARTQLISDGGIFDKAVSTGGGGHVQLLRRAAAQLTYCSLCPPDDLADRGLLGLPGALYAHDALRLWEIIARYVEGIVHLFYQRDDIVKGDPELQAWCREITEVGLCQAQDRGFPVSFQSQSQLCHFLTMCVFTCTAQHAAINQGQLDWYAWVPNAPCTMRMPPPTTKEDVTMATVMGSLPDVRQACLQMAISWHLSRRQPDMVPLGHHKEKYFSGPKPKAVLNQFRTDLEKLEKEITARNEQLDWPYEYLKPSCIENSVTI

Target: Polyunsaturated fatty acid lipoxygenase ALOX12 (Homo sapiens) (UniProt P18054)
Experiment: Primary qHTS assay for inhibitors of human arachidonate 12S-lipoxygenase (ALOX12): Round 2
Settings: purified 12hLO, xylenol orange hydroperoxide absorbance; activity change, negative = inhibition: at 108 µM (top of the series) unless noted
Summary of the method: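 Purified human 12hLO (150 nM final) in 25 mM Hepes, 0.01% Triton X-100, pH 7.0 was preincubated 15 min at room temperature with compound. Then 40 uM arachidonic acid was added, 30 min. Hydroperoxide was read by Fe-XO absorbance ratio 573/405 nm.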
On the % scale 0 is the no-effect control and ±100 the full control effect; potency means the concentration at half of the fitted maximal effect.

SMILES	Potency	activity change, negative = inhibition
CN1CCN(CC(=O)c2ccccc2F)CC1	inconclusive: 0.316 µM [inhibitor, full curve, poor fit]	–
Cc1c(C(=O)NCc2coc(-c3cccs3)n2)cccc1[N+](=O)[O-]	–	inactive: -18.6%
COc1ccccc1N1CCN(CC(=O)N2CCCC2)CC1	–	inactive: -27.2%
CCc1nc2sc(-c3ccncc3)c(N)c2cc1C	inconclusive: 39.8 µM [inhibitor, partial curve, poor fit]	–
COc1cc(/C=C2\SC(=O)N(Cc3ccc(Cl)cc3)C2=O)cc([N+](=O)[O-])c1O	–	inactive: -102%
O=C(Cc1cccc(Cl)c1)N1CCCC(c2nn(-c3ccccc3)c(=O)[nH]2)C1 (centres undefined)	inconclusive: 25.1 µM [inhibitor, full curve]	–
CCn1c(N2CCN(Cc3cc(C)ccc3C)CC2)nc2c1c(=O)[nH]c(=O)n2C	–	inactive: -0.976%
COc1ccc(-c2cc(NCc3ccccn3)n3ncnc3n2)cc1	inconclusive: 28.2 µM [inhibitor, single point]	–
CN1/C(=C\P(=O)(N(C)C)N(C)C)C(C)(C)c2ccccc21	inconclusive: 25.1 µM [inhibitor, partial curve]	–
Cc1ccc(C)c(Nc2nc(-c3ccccc3)c3cc(Br)ccc3n2)c1	inconclusive: 56.2 µM [inhibitor, partial curve, poor fit]	–
Cc1cc(O)c(C(C)C)cc1NC(=O)c1cccc(Cl)c1	inconclusive: 2 µM [inhibitor, full curve, poor fit]	–
O=C(NCCc1c[nH]c2ccccc12)C(=O)Nc1ccccc1F	inconclusive: 1 µM [inhibitor, full curve, poor fit]	–
CC(C)C(=O)Nc1sc2c(c1-c1nc3ccccc3s1)CCN(C(C)C)C2	inconclusive: 31.6 µM [inhibitor, partial curve, poor fit]	–
CCNC(=S)N/N=C/c1sc(N2CCCCC2)nc1-c1cccs1	inconclusive: 44.7 µM [inhibitor, partial curve, poor fit]	–
S=C(Nc1ccc(Cl)cc1Cl)N1CCCCC1	–	inactive: 7.46%
CCCc1cc(=O)[nH]c(SCc2nc(-c3ccc(OC)cc3OC)no2)n1	–	inactive: -5.07%
CCN1C(=O)/C(=C2\SC(N3CCOCC3)=NC2=O)c2ccccc21	–	inactive: 0%
CCN1C(=O)C(Cc2nc3ccccc3c(=O)n2-c2ccc(OC)cc2)c2cc(C)ccc21 (centres undefined)	inconclusive: 141 µM [inhibitor, partial curve, poor fit]	–
COc1ccccc1C1=NN(C(=O)c2cccc(F)c2)C(c2ccc3nccnc3c2)C1 (centres undefined)	inconclusive: 141 µM [inhibitor, single point]	–

Rewritten as comma-separated lines: two of the compounds above
SMILES,Potency,"activity change, negative = inhibition"
COc1cc(/C=C2\SC(=O)N(Cc3ccc(Cl)cc3)C2=O)cc([N+](=O)[O-])c1O,–,inactive: -102%
O=C(NCCc1c[nH]c2ccccc12)C(=O)Nc1ccccc1F,"inconclusive: 1 µM [inhibitor, full curve, poor fit]",–
